Experimental findings from article PMC5760656 are described below.

Amino acid sequences for entries named in this document (tags omitted).
UniProt Q9JMB7: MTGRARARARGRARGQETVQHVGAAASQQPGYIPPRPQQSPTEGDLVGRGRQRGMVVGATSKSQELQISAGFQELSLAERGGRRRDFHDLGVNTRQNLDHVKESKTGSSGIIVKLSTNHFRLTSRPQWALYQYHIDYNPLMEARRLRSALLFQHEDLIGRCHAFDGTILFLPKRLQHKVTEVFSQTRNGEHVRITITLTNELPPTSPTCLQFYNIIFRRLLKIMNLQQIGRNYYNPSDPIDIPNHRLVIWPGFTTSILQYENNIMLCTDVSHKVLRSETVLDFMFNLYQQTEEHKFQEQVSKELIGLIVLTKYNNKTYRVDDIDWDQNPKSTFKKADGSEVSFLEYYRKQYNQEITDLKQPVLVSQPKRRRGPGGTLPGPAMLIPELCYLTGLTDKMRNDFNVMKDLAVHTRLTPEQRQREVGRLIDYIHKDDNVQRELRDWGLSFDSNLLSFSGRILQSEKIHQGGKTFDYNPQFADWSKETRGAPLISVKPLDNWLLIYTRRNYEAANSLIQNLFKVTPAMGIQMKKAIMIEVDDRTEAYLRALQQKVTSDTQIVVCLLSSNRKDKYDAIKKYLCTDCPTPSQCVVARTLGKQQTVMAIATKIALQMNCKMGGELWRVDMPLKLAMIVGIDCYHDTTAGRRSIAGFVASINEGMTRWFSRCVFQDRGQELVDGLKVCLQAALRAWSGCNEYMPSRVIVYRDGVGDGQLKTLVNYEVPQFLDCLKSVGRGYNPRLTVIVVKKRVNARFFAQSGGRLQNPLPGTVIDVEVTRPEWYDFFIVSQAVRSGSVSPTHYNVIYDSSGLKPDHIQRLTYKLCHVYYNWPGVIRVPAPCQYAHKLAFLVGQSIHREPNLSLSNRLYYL
UniProt Q8CDG1: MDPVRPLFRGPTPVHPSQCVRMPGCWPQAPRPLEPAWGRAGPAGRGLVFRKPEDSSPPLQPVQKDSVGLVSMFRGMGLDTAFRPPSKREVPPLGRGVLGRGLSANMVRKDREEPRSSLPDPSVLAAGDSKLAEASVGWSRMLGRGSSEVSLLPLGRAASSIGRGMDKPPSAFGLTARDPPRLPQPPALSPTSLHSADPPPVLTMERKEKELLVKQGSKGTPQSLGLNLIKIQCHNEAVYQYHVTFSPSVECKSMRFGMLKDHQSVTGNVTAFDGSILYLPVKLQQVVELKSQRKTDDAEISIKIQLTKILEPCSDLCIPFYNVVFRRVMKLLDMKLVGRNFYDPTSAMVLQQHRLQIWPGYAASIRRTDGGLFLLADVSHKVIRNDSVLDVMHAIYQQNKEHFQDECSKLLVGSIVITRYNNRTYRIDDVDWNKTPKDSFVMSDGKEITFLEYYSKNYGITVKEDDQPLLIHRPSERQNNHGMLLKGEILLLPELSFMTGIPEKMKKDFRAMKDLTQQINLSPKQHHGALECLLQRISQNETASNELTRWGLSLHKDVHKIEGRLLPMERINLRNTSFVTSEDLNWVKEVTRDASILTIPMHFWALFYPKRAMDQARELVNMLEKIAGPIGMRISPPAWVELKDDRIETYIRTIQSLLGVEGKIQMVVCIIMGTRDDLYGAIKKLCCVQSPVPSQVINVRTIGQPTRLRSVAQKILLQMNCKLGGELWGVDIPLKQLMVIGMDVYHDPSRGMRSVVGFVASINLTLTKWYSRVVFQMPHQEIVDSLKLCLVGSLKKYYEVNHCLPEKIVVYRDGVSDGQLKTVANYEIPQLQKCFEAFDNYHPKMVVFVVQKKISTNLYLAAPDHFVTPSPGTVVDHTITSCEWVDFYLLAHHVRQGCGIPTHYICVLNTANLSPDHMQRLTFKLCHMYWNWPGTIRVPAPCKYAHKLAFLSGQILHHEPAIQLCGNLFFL

Results are given in words; binding and its absence hold for the method and conditions named. Binding seen in cells or lysates may run through a third protein. Some results given as binding are weak or reduced against the parent protein; the word gives no strength. Sequences can lack the tags named with a protein.

Assay [1] deals with MIWI (PIWIL1), FLAG-tagged (mouse) (UniProt Q9JMB7). In words: co-IP; HEK293T cells co-transfected with GFP-TDRD5 and FLAG-MILI or FLAG-MIWI; 48 h after transfection immunoprecipitation with anti-FLAG M2 affinity gel; western blot with anti-GFP and anti-FLAG. For orientation: A western blot detects proteins with antibodies after separation by electrophoresis.
For assay [2], the target named is MILI (PIWIL2), FLAG-tagged (mouse) (UniProt Q8CDG1). Described as above.

B1: Tudor domain-containing 5 (TDRD5) protein, GFP-tagged, full length (protein, UniProt Q5VCS6-1 1-1040)
chain: MSEQERIQDCLRKEIRSLLISTKDGLTPQQLEKEYLLMVGNHLPLRILGYRSTMELVLDMPDVVSVCPGGDGTVILKAIPDESTKGIASLVAKQRRSHKVRNSMPKGRPSICSGRVPYRGRVPPILPAVVKSELKDLLALSPVLLSDFEKAFARRFGRSFQYMQYGFLSMFEVLNAASDVISVEQTRAGSLLTLKKSVSEDKQRGWPAGKVFTQPFRMKQQGSYSTGFPVMKAHFSQPISNMEPPKQVLSMAKTPTFNSVEASRLNHTEKLNQLESTFKSVIAQIGPGGTVDPELKRKIQFVVSKFPQGLFISKLLGEFELTFKEQLSPKQLGFLNVTELVGALSDILRVEFSEERQDLLVFDADLKPLPSGGPLSSVRNSCLVQPDKKTEANPWTSSLSRNSLSTVAVKKTTWDCPLKNQKEPEQKIYKKPNLVVKPLQLQVETNKPQLSLSVANHDIPPDAVRAKKLCRLPPLDTSTLVGVFVEYIISPSQFYIRIYSRDSSELLEDMMIEMRRCYSNQLVSDRYIMPEYFIQPGHLCCVKISEDKWWYRVIIHRILGKKEVEVFYPDFGNIGTVQKSSLRFLKCCYTKLPAQAIPCSLAWVRPAEEHWTARAILHFQKLCGLKPLVGVVDEYIDGILNIFLCDTSSNEDVYFHHVLRTEGHAIVCRENAPSKGFRDFNPPALYTNASSAGDMVLTDLGHPAQQHYLNEDQEILQQAQQDINDGKCISYLKSAPKELLKDSKLSSLKTHKSCEEDPRWSILQPKDLKEENEDEVPTGMPCLESVTIGDDVWDENWLPLQAKMGKAGSPASQLFTSNLVGKKQYQTGGEMAQKDWCFSTSKDIWDDSWQPLGLANDVKGGIHTPEGPIAQEKNTSTTRIQQQPDLQYPLDSSTLPKLEEFYISLIKSQQSAERSQSEPASIQTHAGRAASKALSSTPAVGDSPENHSGSVESSPGSLKKEDVSNSRAEATAKDKSQGAIDQLSFILSPQHQISQKLYIPRSTATAVLGAAARLATSRSLLHWYPSVKGGKLEAERDGVK
For B1, the binding result in assay [1] and in assay [2] was “binds” each time.
